Reference: patent US8110687B2, “Bicyclic compounds with kinase inhibitory activity” (Millennium Pharmaceuticals, Inc., priority 2005, dated 2012)
Like-named read-outs stand apart in the source and are kept apart here. Some results were stated once for a whole list of compounds, not compound by compound.

Amino acid sequences for entries named in this document (tags omitted).
UniProt P15056, whole entry, stated change not applied: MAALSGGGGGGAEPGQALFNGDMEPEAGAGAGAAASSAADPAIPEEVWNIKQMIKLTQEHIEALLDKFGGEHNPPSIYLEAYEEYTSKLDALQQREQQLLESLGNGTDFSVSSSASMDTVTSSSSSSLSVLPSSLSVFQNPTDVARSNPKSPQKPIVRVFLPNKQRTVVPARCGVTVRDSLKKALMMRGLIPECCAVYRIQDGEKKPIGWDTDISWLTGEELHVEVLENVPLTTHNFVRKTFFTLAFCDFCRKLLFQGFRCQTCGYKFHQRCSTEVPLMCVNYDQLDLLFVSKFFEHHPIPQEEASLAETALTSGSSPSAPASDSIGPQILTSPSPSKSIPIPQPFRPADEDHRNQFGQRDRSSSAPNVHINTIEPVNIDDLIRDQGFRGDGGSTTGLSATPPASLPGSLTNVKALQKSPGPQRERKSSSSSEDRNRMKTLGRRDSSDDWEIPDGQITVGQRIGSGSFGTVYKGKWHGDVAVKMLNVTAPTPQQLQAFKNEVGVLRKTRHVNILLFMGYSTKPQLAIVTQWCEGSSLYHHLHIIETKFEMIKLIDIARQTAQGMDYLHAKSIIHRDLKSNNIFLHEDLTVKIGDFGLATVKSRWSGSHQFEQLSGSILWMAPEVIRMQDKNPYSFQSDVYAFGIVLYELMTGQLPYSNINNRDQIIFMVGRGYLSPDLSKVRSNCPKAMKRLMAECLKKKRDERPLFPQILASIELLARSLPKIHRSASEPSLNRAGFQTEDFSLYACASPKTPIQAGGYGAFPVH

Molecular target: B-Raf (V599E or Wild Type) (Homo sapiens, UniProt P15056)
Assay: B-Raf Flash Plate assay
Assay type: biochemical
Conditions: Peptide 118, 0.5 μM ATP, 60 minutes
[1] = read-out: IC50, inhibition of the enzyme in B-Raf Flash Plate assay
[2] = read-out: IC50 in B-Raf Flash Plate assay

Compound	IC50 [1]	IC50 [2]
CC(=O)Nc1cc(Oc2ccc3c(c2)CC(C(=O)Nc2cc(C#N)cc(C(C)(C)C)c2)CC3)ccn1 (stereo not drawn) [Compound I-389, 7-{[2-(acetylamino)pyridin-4-yl]oxy}-N-(3-tert-butyl-5-cyanophenyl)-1,2,3,4-tetrahydronaphthalene-2-carboxamide]	≤ 1000 nM	< 50 nM
CC(=O)NCc1cc(Oc2ccc3c(c2)CC(C(=O)Nc2cc(CN)cc(C(F)(F)F)c2)CC3)ccn1 (stereo not drawn) [Compound I-203, 7-({2-[(acetylamino)methyl]pyridin-4-yl}oxy)-N-[3-(aminomethyl)-5-(trifluoromethyl)phenyl]-1,2,3,4-tetrahydronaphthalene-2-carboxamide]	≤ 1000 nM	< 50 nM
CC(C)(C)c1cccc(NC(=O)c2cnc3ccc(Oc4ccnc(C5=NCCN5)c4)cc3c2)c1 [Compound I-290, N-(3-tert-butylphenyl)-6-{[2-(4,5-dihydro-1H-imidazol-2-yl)pyridin-4-yl]oxy}quinoline-3-carboxamide]	≤ 1000 nM	< 50 nM
CC(C)(C)c1cccc(NC(=O)c2ccc3ccc(Oc4ccnc(-c5nc(CO)c[nH]5)c4)cc3c2)c1 [Compound I-153, N-(3-tert-butylphenyl)-7-({2-[4-(hydroxymethyl)-1H-imidazol-2-yl]pyridin-4-yl}oxy)-2-naphthamide]	≤ 1000 nM	< 50 nM
O=C(Nc1ccc2ccc(Oc3ccnc(C4=NCCN4)c3)cc2c1)c1ccc(Cl)c(C(F)(F)F)c1 [Compound I-440, 4-chloro-N-(7-{[2-(4,5-dihydro-1H-imidazol-2-yl)pyridin-4-yl]oxy}-2-naphthyl)-3-(trifluoromethyl)benzamide]	≤ 1000 nM	< 50 nM
O=C(Nc1cc(OCCN2CCCC2)cc(C(F)(F)F)c1)C1CCc2ccc(Oc3ccnc(C4=NCCN4)c3)cc2C1 (stereo not drawn) [Compound I-4, 7-{[2-(4,5-dihydro-1H-imidazol-2-yl)pyridin-4-yl]oxy}-N-[3-(2-pyrrolidin-1-ylethoxy)-5-(trifluoromethyl)phenyl]-1,2,3,4-tetrahydronaphthalene-2-carboxamide]	≤ 1000 nM	< 50 nM
CC(C)(C)c1cccc(NC(=O)C2CCc3ccc(Oc4ccnc(-c5ncc(C(F)(F)F)[nH]5)c4)cc3C2)c1 (stereo not drawn) [Compound I-361, N-(3-tert-butylphenyl)-7-({2-[5-(trifluoromethyl)-1H-imidazol-2-yl]pyridin-4-yl}oxy)-1,2,3,4-tetrahydronaphthalene-2-carboxamide]	≤ 1000 nM	< 50 nM
CNC(=O)c1cc(Oc2ccc3ccc(C(=O)Nc4ccc(CN)c(C(F)(F)F)c4)cc3c2)ccn1 [Compound I-32, 4-{[7-({[4-(aminomethyl)-3-(trifluoromethyl)phenyl]amino}carbonyl)-2-naphthyl]oxy}-N-methylpyridine-2-carboxamide]	≤ 1000 nM	< 50 nM

The remaining lines, values ahead:

IC50 [1]	IC50 [2]	Compound
≤ 1000 nM	< 50 nM	CC(=O)Nc1cc(Oc2ccc3c(c2)CC(C(=O)Nc2cc(CN4CC[C@@H](F)C4)cc(C(F)(F)F)c2)CC3)ccn1 (stereo partly drawn) [Compound I-407, 7-{[2-(acetylamino)pyridin-4-yl]oxy}-N-[3-{[(3R)-3-fluoropyrrolidin-1-yl]methyl}-5-(trifluoromethyl)phenyl]-1,2,3,4-tetrahydronaphthalene-2-carboxamide]
≤ 1000 nM	–	O=C(Nc1cc(C(F)(F)F)ccc1F)C1CCc2ccc(Oc3ccnc(C4=NCCN4)c3)cc2C1 (stereo not drawn) [Compound I-1, 7-{[2-(4,5-dihydro-1H-imidazol-2-yl)pyridin-4-yl]oxy}-N-[2-fluoro-5-(trifluoromethyl)phenyl]-1,2,3,4-tetrahydronaphthalene-2-carboxamide]
≤ 1000 nM	< 50 nM	O=C(Nc1cc(CN2CCCC2)cc(C(F)(F)F)c1)C1CCc2ccc(Oc3ccnc(NC(=O)C4CC4)c3)cc2C1 (stereo not drawn) [Compound I-269, 7-({2-[(cyclopropylcarbonyl)amino]pyridin-4-yl}oxy)-N-[3-(pyrrolidin-1-ylmethyl)-5-(trifluoromethyl)phenyl]-1,2,3,4-tetrahydronaphthalene-2-carboxamide]
≤ 1000 nM	< 50 nM	CC(=O)Nc1cc(Oc2ccc3c(c2)CC(C(=O)Nc2cc(C(C)(C)C)ccc2F)CC3)ccn1 (stereo not drawn) [Compound I-236, 7-{[2-(acetylamino)pyridin-4-yl]oxy}-N-(5-tert-butyl-2-fluorophenyl)-1,2,3,4-tetrahydronaphthalene-2-carboxamide]
≤ 1000 nM	< 50 nM	O=C(NC1CCc2ccc(Oc3ccnc(NC(=O)C4CC4)c3)cc2C1)c1cccc(C(F)(F)F)c1 (stereo not drawn) [Compound I-421, N-[7-({2-[(cyclopropylcarbonyl)amino]pyridin-4-yl}oxy)-1,2,3,4-tetrahydronaphthalen-2-yl}-3-(trifluoromethyl)benzamide]
≤ 1000 nM	< 50 nM	CNC(=O)c1cc(Oc2ccc3c(c2)CC(C(=O)Nc2ccc(CN)c(C(F)(F)F)c2)CC3)ccn1 (stereo not drawn) [Compound I-28, 4-{[7-({[4-(aminomethyl)-3-(trifluoromethyl)phenyl]amino}carbonyl)-5,6,7,8-tetrahydronaphthalen-2-yl]oxy}-N-methylpyridine-2-carboxamide]
